Measurements as given in PubChem BioAssay AID504467 (National Center for Advancing Translational Sciences (NCATS), 2011).
Screen size: about 330,000 compounds; about 7,700 (2.3%) were called active. The shares of active, inactive and inconclusive entries below differ from those in the screen. Calls follow the shape of the dose curve; as a rule, active = well fitted inhibition curve with a large enough effect; inconclusive = small, poorly fitted or top-dose-only effect, or effect the other way; inactive = flat fitted curve, though single readings scatter. A potency beside an inconclusive call is a rough fit, not a confirmed value.

assay: qHTS screen for small molecules that inhibit ELG1-dependent DNA repair in human embryonic kidney (HEK293T) cells expressing luciferase-tagged ELG1; settings: HEK293T ELG1-luciferase reporter, luminescence, 16 h, DNA damage induced by 5-fluorouridine; series mostly up to 46.1 µM; also: nearly all actives have a fitted effect of over 55% in size
Method in brief: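 In this reporter screen, reduction of luminescence relative to DMSO vehicle indicated activity. Compounds and 5-fluorouridine were added together to 2,000 cells per well, incubated for 16 hr at 37 °C, then developed with ONE-Glo.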
Potency is read from the fitted curve at half-maximal effect.

Q: With `O=C(NCC(c1ccco1)N1CCCC1)c1cccc(S(=O)(=O)Nc2ccc(Br)cc2)c1` (configuration not stated) as the molecule, how does the Potency read?
A: Its Potency is inconclusive: 0.184 µM [inhibitor, full curve, poor fit].

Q: For `Cc1cc(C2=NNC(=Nc3ccccc3)SC2)c(C)n1C`, which Potency is on record?
A: The Potency was inconclusive: 5.17 µM [activator, partial curve].

Q: Which Potency does the source give for `CCCN(CCC)CCCNC(=O)c1cc2c(=O)[nH]c3ccccc3c2n1C` here?
A: Its Potency is inconclusive: 18.3 µM [activator, single point].

Q: With `CCCCN(C(=O)c1cc2c(s1)CCC2)c1c(N)n(CCCC)c(=O)[nH]c1=O` as the molecule, how does the Potency read?
A: Its Potency is “inactive”.

Q: For `CN(CC(=O)Nc1ccccc1C(F)(F)F)C(=O)CCc1nc2sc3c(c2c(=O)[nH]1)CCCC3`, which Potency is on record?
A: The Potency was inconclusive: 18.3 µM [inhibitor, partial curve].

Q: For `CCN(C(=O)COC(=O)c1oc2ccc(OC)cc2c1C)C1CCS(=O)(=O)C1` (configuration not stated), which Potency is on record?
A: The Potency was “inactive”.

Q: For `CCN1CCN(c2cc(C)c3cc(NC(=O)CCC(=O)N4CCN(c5ccccc5OC)CC4)ccc3n2)CC1`, which Potency is on record?
A: Its Potency is inconclusive: 29.1 µM [inhibitor, single point].

Q: Which Potency does the source give for `CCOC(=O)N1CCN(C(=O)c2ccc3c(c2)N=C(CC)c2cc(C)ccc2S3)CC1` here?
A: Its Potency is inconclusive: 29.1 µM [inhibitor, single point].

Q: With `Cc1cc(NC(=O)c2ccc(NC(=O)C(C)C)cc2)no1` as the molecule, how does the Potency read?
A: Its Potency is inconclusive: 20.6 µM [activator, single point].

Q: Which Potency does the source give for `Cc1ccc(NC(=O)CN(C)C(=O)CSc2nnc(C(F)(F)F)n2C)cc1` here?
A: Its Potency is “inactive”.

Q: Which Potency does the source give for `O=C(NCc1ccc(Cl)cc1)C1CCN(c2cnccn2)CC1` here?
A: The Potency was “inactive”.

Q: With `COc1cc(/C=N\NS(=O)(=O)c2ccccc2)cc(OC)c1OC` as the molecule, how does the Potency read?
A: Its Potency is “inactive”.

Q: With `CCOc1ccc(/C=C/C(=O)N(CC)CC(=O)Nc2ccc3c(c2)OCCO3)cc1OC` as the molecule, how does the Potency read?
A: Its Potency is “inactive”.

Q: For `O=C1CC[C@@H](O)CCN1CC[C@H](Sc1ccccc1)c1ccccc1`, which Potency is on record?
A: Its Potency is inconclusive: 29.1 µM [activator, single point].

Q: With `CC(C)COc1ccc(C(=O)Nc2ccc([N+](=O)[O-])cc2)cc1` as the molecule, how does the Potency read?
A: Its Potency is active: 1.46 µM.

Q: Which Potency does the source give for `COC(=O)Cn1c(=NC(=O)c2ccc(Cl)s2)sc2cc(C)ccc21` here?
A: Its Potency is inconclusive: 8.2 µM [activator, partial curve].

Q: Which Potency does the source give for `Cc1ccc(/C=N/N2C(=O)c3ccccc3NC2c2ccc(C)cc2)cc1` (configuration not stated) here?
A: Its Potency is inconclusive: 9.2 µM [activator, partial curve].

Q: For `CC(C)(C)c1ccc(S(=O)(=O)N2CCC(O)(c3ccc(Cl)cc3)CC2)cc1`, which Potency is on record?
A: The Potency was inconclusive: 16.4 µM [inhibitor, single point].

Q: Which Potency does the source give for `O=C(NCCC1=CCCCC1)C(=O)NCC(c1ccco1)N1CCN(c2ccccc2)CC1` (configuration not stated) here?
A: Its Potency is “inactive”.

Q: With `Fc1ccc(CNC(=S)NCc2ccc(F)cc2)cc1` as the molecule, how does the Potency read?
A: The Potency was “inactive”.

Q: With `COc1ccccc1NS(=O)(=O)c1ccc(C(=O)N2CCN(c3ccccn3)CC2)cc1` as the molecule, how does the Potency read?
A: The Potency was inconclusive: 23.1 µM [inhibitor, single point].

Q: Which Potency does the source give for `COc1ccc(/C=N/Nc2cc(C)nc3ccc(Br)cc23)cc1` here?
A: The Potency was inconclusive: 18.3 µM [inhibitor, single point].

Q: For `Cc1nn(-c2ccccc2)c(C)c1/C=C/C(=O)OCC(=O)N(C)C1CCS(=O)(=O)C1` (configuration not stated), which Potency is on record?
A: Its Potency is “inactive”.

Q: Which Potency does the source give for `COC(=O)c1ccc(/C=N/NC(=S)NC(C)C)cc1` here?
A: The Potency was inconclusive: 1.03 µM [activator, full curve, poor fit].

Q: Which Potency does the source give for `CCOC(=O)c1c(NC(=O)C(=O)N/N=C/c2ccc(O)c(OC)c2)sc2c1CCCCC2` here?
A: Its Potency is active: 14.6 µM.

Q: With `C/C(=N\Nc1ccc(Cl)c(C(=O)O)c1)c1cccc2ccccc12` as the molecule, how does the Potency read?
A: The Potency was inconclusive: 16.4 µM [activator, single point].

Q: Which Potency does the source give for `COc1ccc(-n2c(C)c(C(C)=O)c(C(C)=O)c2C)cc1` here?
A: Its Potency is inconclusive: 20.6 µM [inhibitor, partial curve].

Q: With `COc1ccc(NC(=O)c2ccc(S(=O)(=O)N(C)c3ccccc3)cc2)cn1` as the molecule, how does the Potency read?
A: The Potency was active: 10.3 µM.

Q: Which Potency does the source give for `CCCCOc1ccccc1NC(=O)c1scc2c1OCCO2` here?
A: Its Potency is inconclusive: 23.1 µM [inhibitor, single point].

Q: For `OC1CCCN(Cc2c3ccccc3cc3ccccc23)C1` (configuration not stated), which Potency is on record?
A: The Potency was inconclusive: 6.51 µM [inhibitor, partial curve, poor fit].

Q: With `Cc1ccc2[nH]c(=O)c(COC(=O)C3CCCCC3)cc2c1` as the molecule, how does the Potency read?
A: The Potency was “inactive”.

Q: For `COc1cc(/C=C/C(=O)OCC(=O)c2ccc(OC(F)F)cc2)ccc1O`, which Potency is on record?
A: Its Potency is active: 18.3 µM.

Q: For `CCc1nc(SCC(=O)Nc2cc(OC)ccc2OC)c2c(C)c(C)sc2n1`, which Potency is on record?
A: Its Potency is inconclusive: 29.1 µM [inhibitor, single point].

Q: For `COc1ccc(-c2nn(-c3ccccc3)cc2/C=N/N2C(=O)CSC2=S)cc1`, which Potency is on record?
A: Its Potency is inconclusive: 29.1 µM [inhibitor, single point].

Q: Which Potency does the source give for `COc1ccc([N+](=O)[O-])cc1NC(=O)C(C)NNC(=O)c1cccc([N+](=O)[O-])c1` (configuration not stated) here?
A: Its Potency is inconclusive: 23.1 µM [inhibitor, single point].

Q: Which Potency does the source give for `COc1ccc(CC(=O)Nc2cccc(/C(C)=N/NC(=O)C3(C)CC3(Br)Br)c2)cc1` (configuration not stated) here?
A: The Potency was “inactive”.

Q: Which Potency does the source give for `COc1ccc(CNCC(O)(c2ccc(F)cc2)c2ccc(F)cc2)cc1OC` here?
A: Its Potency is inconclusive: 16.4 µM [inhibitor, partial curve].

Q: Which Potency does the source give for `CCCCCCc1cc2cc(C(=O)NC)c(=N)oc2cc1O` here?
A: The Potency was “inactive”.

Q: Which Potency does the source give for `Cc1ccc(C2=NN(C(=O)CCl)C(c3ccco3)C2)o1` (configuration not stated) here?
A: Its Potency is active: 2.31 µM.

Q: Which Potency does the source give for `CC(C)(C)c1nc(SCC(=O)N2CCCC2)c2ccccc2n1` here?
A: Its Potency is “inactive”.

Q: Which Potency does the source give for `Cc1ccc(S(=O)(=O)NCCNC(C)c2ccc(Br)cc2)cc1` (configuration not stated) here?
A: Its Potency is inconclusive: 7.08 µM [inhibitor, partial curve].

Q: For `COc1cccc(N2C(=O)C(c3ccccc3)=C(c3nc4ccccc4s3)C2NC(C)=O)c1` (configuration not stated), which Potency is on record?
A: The Potency was active: 2.31 µM.

Q: With `CC(=O)Nc1ccc(SCC(=O)Nc2sccc2C#N)cc1` as the molecule, how does the Potency read?
A: Its Potency is inconclusive: 18.3 µM [activator, single point].

Q: Which Potency does the source give for `CCN(CC)S(=O)(=O)c1ccc2oc(SCC(=O)NCc3ccccc3)nc2c1` here?
A: The Potency was inconclusive: 29.1 µM [inhibitor, single point].

Q: With `CCC(Cc1ccccc1)NC(=O)C1CC1` (configuration not stated) as the molecule, how does the Potency read?
A: Its Potency is “inactive”.

Q: Which Potency does the source give for `CCOc1cc(/C=N/NC(=O)CCn2nnc3ccccc32)ccc1O` here?
A: Its Potency is inconclusive: 29.1 µM [activator, single point].

Q: For `O=C(COC(=O)CCNS(=O)(=O)c1cccs1)Nc1ccccc1`, which Potency is on record?
A: The Potency was “inactive”.

Q: With `Cc1ccccc1OCC(=O)NN1CCN(C)CC1` as the molecule, how does the Potency read?
A: The Potency was inconclusive: 18.4 µM [activator, partial curve, poor fit].

Q: With `CC(=O)c1c(C)[nH]c(C(=O)NC2CCCCC2)c1C` as the molecule, how does the Potency read?
A: Its Potency is inconclusive: 16.4 µM [activator, single point].

Q: For `O=C(NC1CCCC1)c1ccc([N+](=O)[O-])s1`, which Potency is on record?
A: The Potency was inconclusive: 29.1 µM [inhibitor, single point].

Q: With `Nc1nc(COC(=O)C2CCN(C(=O)c3ccc(Cl)cc3)CC2)nc(Nc2ccccc2)n1` as the molecule, how does the Potency read?
A: Its Potency is “inactive”.

Q: Which Potency does the source give for `O=C1CN(C(=O)c2cccc([N+](=O)[O-])c2)CC(=O)N1` here?
A: The Potency was “inactive”.

Q: For `Cc1ccsc1/C=C1\SC(N)=NC1=O`, which Potency is on record?
A: Its Potency is inconclusive: 29.1 µM [activator, single point].

Q: For `Cc1ccc(-c2nnc(OCc3cccnc3)c3ccccc23)cc1`, which Potency is on record?
A: The Potency was inconclusive: 32.6 µM [inhibitor, partial curve, poor fit].

Q: For `CCS(=O)(=O)c1ccc2oc(SCC(=O)NC(C)C3CC4CCC3C4)nc2c1` (configuration not stated), which Potency is on record?
A: Its Potency is inconclusive: 29.1 µM [inhibitor, single point].

Q: With `COc1ccc(/C=N/NC(=S)Nc2ccccc2)cc1COc1ccc(F)cc1F` as the molecule, how does the Potency read?
A: The Potency was “inactive”.

Q: For `Cc1cc(N2CCCC2=O)cc(C)c1S(=O)(=O)NCCOc1ccccc1`, which Potency is on record?
A: Its Potency is inconclusive: 35.5 µM [inhibitor, single point].

Q: With `CCN(CC)C(=O)C1CCCN(Cc2ccc3ccccc3c2)C1` (configuration not stated) as the molecule, how does the Potency read?
A: The Potency was “inactive”.

Q: Which Potency does the source give for `CN(C)S(=O)(=O)c1ccc(N2CCCC2)c(C(=O)OCC(=O)NC2CCCCC2)c1` here?
A: Its Potency is inconclusive: 29.1 µM [inhibitor, single point].

Q: With `Cc1ccc(-n2c(C)cc(/C=C3\NC(=O)NC3=O)c2C)c(C)c1` as the molecule, how does the Potency read?
A: Its Potency is “inactive”.

Q: With `O=C(COC(=O)CNC(=O)c1sc2ccccc2c1Cl)NC1CCS(=O)(=O)C1` (configuration not stated) as the molecule, how does the Potency read?
A: The Potency was “inactive”.

Q: With `CCCOC(=S)Nc1ccccc1` as the molecule, how does the Potency read?
A: Its Potency is inconclusive: 32.6 µM [activator, partial curve, poor fit].

Q: Which Potency does the source give for `Cc1ccc(-c2cc(Cc3ccccn3)c(=O)[nH]n2)cc1` here?
A: Its Potency is “inactive”.

Q: Which Potency does the source give for `CC(C)(C)c1cc(CCC(=O)NNC(=S)NC(=O)c2ccccc2)cc(C(C)(C)C)c1O` here?
A: Its Potency is “inactive”.

Q: With `O=C(COC(=O)c1ccc(F)cc1)NCC1CCCCC1` as the molecule, how does the Potency read?
A: The Potency was inconclusive: 14.6 µM [activator, partial curve].

Q: For `COc1cc(F)c(C2=CC(=O)C[C@H](c3ccc(F)cc3)C2)cc1F`, which Potency is on record?
A: Its Potency is inconclusive: 16.4 µM [inhibitor, single point].

Q: Which Potency does the source give for `CCOC(=O)C1=C(C)N(C)C(=S)NC1c1ccc(Cl)cc1` (configuration not stated) here?
A: The Potency was inconclusive: 1.16 µM [inhibitor, single point].

Q: Which Potency does the source give for `Nn1c(SCc2cccc(Cl)c2)nnc1-c1ccncc1` here?
A: Its Potency is inconclusive: 29.1 µM [inhibitor, single point].

Q: Which Potency does the source give for `CCOC(=O)C1(CC2CC2)CCN(Cc2ccc(C(=O)OC)cc2)CC1` here?
A: The Potency was “inactive”.

Q: Which Potency does the source give for `O=C(Nc1ccccc1)c1csc(-c2ccccc2)n1` here?
A: Its Potency is inconclusive: 23.1 µM [activator, single point].

Q: For `CC(C)CCn1c(NCCc2ccccc2)nc2c1c(=O)n(C)c(=O)n2C`, which Potency is on record?
A: The Potency was inconclusive: 25.9 µM [inhibitor, single point].

Q: With `CS(=O)(=O)N1CCC(Oc2ccccc2C(=O)N2CCC[C@H]2CO)CC1` as the molecule, how does the Potency read?
A: Its Potency is inconclusive: 13 µM [activator, partial curve].
